In publication PMC7819943, “Rice protein-binding microarrays: a tool to detect cis-acting elements near promoter regions in rice”:
The other results are listed elsewhere or left out.

Amino acid sequences for entries named in this document (tags omitted).
UniProt Q0JBA9, entry or part of it: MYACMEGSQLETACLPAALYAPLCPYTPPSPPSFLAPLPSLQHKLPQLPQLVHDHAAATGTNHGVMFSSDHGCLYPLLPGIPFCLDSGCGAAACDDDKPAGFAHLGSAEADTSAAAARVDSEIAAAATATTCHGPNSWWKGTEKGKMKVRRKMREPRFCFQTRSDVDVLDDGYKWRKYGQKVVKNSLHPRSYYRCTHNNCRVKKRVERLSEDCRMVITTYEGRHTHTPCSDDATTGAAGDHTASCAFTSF

Target: OsWRKY34 (Oryza sativa, UniProt Q0JBA9 1-250)
Test: protein-binding microarray (RPBM); PBS, 2% BSA, 51.3 ng/ul salmon testes DNA, 50 uM zinc acetate, 200 nM TF, 25 C, 1 h; high values mean tight binding
Conditions: protein: recombinant; tags: N-terminal polyhistidine and DsRed monomer fusion (pET32a); label: CyDye5-dUTP incorporated in the synthesized complementary strand; 3' TTTTT single-stranded linker to array surface; dsDNA, one strand shown
Method in brief: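 The binding signal is fluorescence intensity per array feature (arbitrary units). Readings came from an Axon 4000B scanner after a washed, 2% BSA-blocked, double-stranded custom Agilent array had been incubated for 1 h at 25 °C with 200 nM protein and 50 µM zinc acetate. The protein was a Ni–NTA-purified transcription factor fused N-terminally to polyhistidine and DsRed, expressed in E. coli BL21-CodonPlus.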

Sequence | binding signal
TCTATTCCTGTCAGAATCCTGTGTTTTTTCTATTCCTCTGCGGAGTCACCTAGTGCAG | 10900 fluorescence intensity (a.u.)
CTCCGATTCTCTTTCACAAATTTTAACCATCATTTTTTTTCGGAGTCACCTAGTGCAG | 11600 fluorescence intensity (a.u.)
GTTTCTTATAATATGTTCTATAGGCCAACATTTCTGCTTTCGGAGTCACCTAGTGCAG | 10300 fluorescence intensity (a.u.)
TCCCAAATCTCGTCCTTTTCCATTTTCGACACAATTTTACCGGAGTCACCTAGTGCAG | 11700 fluorescence intensity (a.u.)
TTCCATTGTATATTCTGTGGTCGGTCGGTACTCAGTTCTTCGGAGTCACCTAGTGCAG | 8760 fluorescence intensity (a.u.)
TCCCGCGTGTTGTGCTGTGCTGTGCTGGTACTACTCCTTACGGAGTCACCTAGTGCAG | 10400 fluorescence intensity (a.u.)
CTTTGACTTAATATAACCACCACATTTGCCTTTTGACTTTCGGAGTCACCTAGTGCAG | 8540 fluorescence intensity (a.u.)
ATGTGGATGGAGTGGGGTTCGAGGGTCATGTCTTGGTCGCCGGAGTCACCTAGTGCAG | 8710 fluorescence intensity (a.u.)
GCCTCACTCCTTCGCGCCTTCGCCTCCCTACCGCGTGCTACGGAGTCACCTAGTGCAG | 10500 fluorescence intensity (a.u.)
CACATCAAACCTTTCATACCCACACAATATTTTTATCATACGGAGTCACCTAGTGCAG | 8580 fluorescence intensity (a.u.)
ACCTGTTCCTTCTATTCTTTTCCTGTGAAAAAATTTTCCTCGGAGTCACCTAGTGCAG | 10700 fluorescence intensity (a.u.)
ACATCCATCCACTTTTAGGTCTCGTGCGCTACCCCTTTTTCGGAGTCACCTAGTGCAG | 10500 fluorescence intensity (a.u.)
CTTCTCGCGCACACTAACCAATCCGAGCATCTCGCCTCGCCGGAGTCACCTAGTGCAG | 9020 fluorescence intensity (a.u.)
TTCTTTTTTTGGCTTCCTTTTTTTTGTGTGTATATATGTACGGAGTCACCTAGTGCAG | 13700 fluorescence intensity (a.u.)
GGTCGTCGTCTTTGCATTGTCTCCTTGTCCGGTACGTTGGCGGAGTCACCTAGTGCAG | 9400 fluorescence intensity (a.u.)
GCTTTCCTTCCGTCCGATCGCTTTGCCTTCGCTCATAGCACGGAGTCACCTAGTGCAG | 8860 fluorescence intensity (a.u.)
AAGCCACAACATGCGCCACAAGCAGCTGCACCCAGTTTTCCGGAGTCACCTAGTGCAG | 9580 fluorescence intensity (a.u.)
ATTGCATCGCCCATTTCGCTCATGGATCAGTAGGTAGCCACGGAGTCACCTAGTGCAG | 8190 fluorescence intensity (a.u.)
GCCAAGGTTAGGTAGGATGGTAGAAGTTGATTTTTTATGGCGGAGTCACCTAGTGCAG | 8740 fluorescence intensity (a.u.)
TAAAGCAATGCACTAATGTTGTTTTCCACGTCCATCCGGCCGGAGTCACCTAGTGCAG | 8520 fluorescence intensity (a.u.)
GTACCTGAATGAGCGGTACTTGTTTGTTTCTTTTTTATCACGGAGTCACCTAGTGCAG | 8190 fluorescence intensity (a.u.)

Reprinted at random: 2 entries already listed
Sequence | binding signal
TCTATTCCTGTCAGAATCCTGTGTTTTTTCTATTCCTCTGCGGAGTCACCTAGTGCAG | 10900 fluorescence intensity (a.u.)
TCCCGCGTGTTGTGCTGTGCTGTGCTGGTACTACTCCTTACGGAGTCACCTAGTGCAG | 10400 fluorescence intensity (a.u.)

(continued)

Sequence | binding signal
GAGCATCCATTGCTTTTGTTGGTACGTTTCTCAAGTTAACCGGAGTCACCTAGTGCAG | 8730 fluorescence intensity (a.u.)
ATTCTGCTCGTTCGGTCGTTTTCTTGCGTCCTCGTCGTGTCGGAGTCACCTAGTGCAG | 8320 fluorescence intensity (a.u.)
TTCGAACGACTCGGCGCTCCATTCTGCCCACCGGCGGTGACGGAGTCACCTAGTGCAG | 10200 fluorescence intensity (a.u.)
GCTTCCCTTCCCCGCTGCCGCCGCCGCTTTCGGAGTTACACGGAGTCACCTAGTGCAG | 8360 fluorescence intensity (a.u.)
AAGGGTAATTGTACGTGTGTTGTGAGTATCTATGTTTGTACGGAGTCACCTAGTGCAG | 10400 fluorescence intensity (a.u.)
TCGTGCTACAGATCTATAGCACACTACTCTTCTCTCTCTTCGGAGTCACCTAGTGCAG | 9200 fluorescence intensity (a.u.)
GCGCGCCGGCGCTTCTCCCCTTCCCGGGCCTCTTCAAAAACGGAGTCACCTAGTGCAG | 8390 fluorescence intensity (a.u.)
ATATTTCTATGATTCTATCCCCTCCAGATTTATCGGCGCCCGGAGTCACCTAGTGCAG | 8310 fluorescence intensity (a.u.)
CTTCAACATCATCTCCGGTGAGCATTCCATTCCATTCCATCGGAGTCACCTAGTGCAG | 10200 fluorescence intensity (a.u.)
GAAACGGAGTAAGTATTAGTTTATAGCTTTCATATTTTTTCGGAGTCACCTAGTGCAG | 8100 fluorescence intensity (a.u.)
CTTTTCTTGTTGTCGCTCTTCTCTACATGCGTATGTAATACGGAGTCACCTAGTGCAG | 8050 fluorescence intensity (a.u.)
TTGCCTCTATTGTTTTCCAGACTGGCTGCTTCTGTAACCCCGGAGTCACCTAGTGCAG | 9770 fluorescence intensity (a.u.)
GCCGGAGCTCCTCCCTGCTCCCTCTACTGGGTTGGCGGGGCGGAGTCACCTAGTGCAG | 8050 fluorescence intensity (a.u.)
ATATTTTGGGACGGAGGTAATACTATCACATATCCGGATTCGGAGTCACCTAGTGCAG | 8710 fluorescence intensity (a.u.)
GGTGTCAATAATCACGTCTCTTTTGATTTTTTATTATAGACGGAGTCACCTAGTGCAG | 8340 fluorescence intensity (a.u.)
TTTCCACTTACCCATTCTACCATGCTCAGCATACCATTGACGGAGTCACCTAGTGCAG | 8790 fluorescence intensity (a.u.)
ATTCTCGCCTTCTCGCTCTCTCGTGGCTGGCCGTGGCGGGCGGAGTCACCTAGTGCAG | 8680 fluorescence intensity (a.u.)
GTGGGCCACCCACCCAACGACCGTTTCACGCATGGCGCACCGGAGTCACCTAGTGCAG | 10700 fluorescence intensity (a.u.)
CATGGCGAGATTGTACTACTACCTTTCTCACTACACGCCACGGAGTCACCTAGTGCAG | 9060 fluorescence intensity (a.u.)
GTATCAGAGCCACACTTTCCTGTAGGCTAAACATCTCTTGCGGAGTCACCTAGTGCAG | 8250 fluorescence intensity (a.u.)
TCCGTCCCATAATACAAGGGATTTTGACTTTTTGGTTGCGCGGAGTCACCTAGTGCAG | 8960 fluorescence intensity (a.u.)
